# Test results from the supplement of paper PMC3334620.
# The full ranking holds about 33,000 sequences; the median of “E-score (-0.5 to 0.5)” is about -0.0014, and the highest 2% start at about 0.25. The list shows a part of the results.
# Target: T1, Cad1 (UniProt P24813)
# T1 sequence: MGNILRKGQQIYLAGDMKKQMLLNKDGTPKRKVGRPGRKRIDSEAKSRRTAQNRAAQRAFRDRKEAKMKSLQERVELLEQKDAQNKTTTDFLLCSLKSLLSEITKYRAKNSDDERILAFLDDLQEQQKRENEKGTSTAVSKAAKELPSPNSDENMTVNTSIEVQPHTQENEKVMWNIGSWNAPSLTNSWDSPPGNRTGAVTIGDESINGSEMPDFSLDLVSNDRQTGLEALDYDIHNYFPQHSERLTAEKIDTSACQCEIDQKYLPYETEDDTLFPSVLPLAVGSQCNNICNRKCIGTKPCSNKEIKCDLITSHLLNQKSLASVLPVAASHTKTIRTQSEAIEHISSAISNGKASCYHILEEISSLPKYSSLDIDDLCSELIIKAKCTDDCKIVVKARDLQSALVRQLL
# Assay: PBM E-score (8-mer binding enrichment) (E-score (-0.5 to 0.5)); higher = stronger / more preferred TF binding
# Settings: protein concentration: 100 nM; construct: GST-full length
# Protocol: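 Universal 'all 10-mer' protein binding microarrays (Agilent AMADID 015681) probed with GST-tagged S. cerevisiae TFs (full-length or DBD) made by in vitro transcription/translation (PURExpress), about 100-200 nM. Bound TF was detected with fluorescent anti-GST. Each ungapped 8-mer (which stands for itself and its reverse complement) is scored by the PBM enrichment score (E-score), a modified Wilcoxon-Mann-Whitney statistic from -0.5 to +0.5, computed with the Universal PBM Analysis Suite. Scale: above 0.35 generally sequence-specific binding.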
row,Sequence,PBM E-score
1,CGGAGTAG,0.00793
2,AAAACTGT,0.0985
3,AAACTTAC,0.0226
4,AGCTAAAC,-0.209
5,CGTCCTCC,-0.12
6,CGTTATGA,0.00642
7,ATCTAGTC,-0.0127
8,ATGGGATC,-0.166
9,CCCCACCA,0.153
10,GACGCTAA,-0.0633
11,GCACTGCA,0.0382
12,AGAGTCGA,-0.134
13,CTGACGAA,0.209
14,AGCAAACC,0.15
15,ACGGTCCC,-0.169
16,GCCGGCTA,-0.00817
17,CGGTCACG,-0.131
18,CAGATAAG,-0.0871
19,ACAGGGCA,0.0797
20,GTCTTATA,-0.0332
21,GGTATTCA,0.172
22,AGCACTCC,0.0892
23,CACCTGTC,-0.116
24,CCCGCTGC,0.0423
25,CGCGCTGC,0.0168

row,Sequence,PBM E-score
1,CTGGAACA,0.099
2,GCGCTGCA,0.124
3,GTCCCGCA,-0.165
4,GACTCACA,0.0214
5,CTGAACAG,0.0772
6,AGTTGATA,0.19
7,AGTCACTC,-0.0896
8,ACGCGAAA,0.17
9,CTCGATCA,0.0804
10,ACAGCTAA,0.0315
11,ATTAGGTG,0.0296
12,GAACAAGC,-0.0511
13,ATCATTAG,0.196
14,ATCATACA,0.114
15,GAAAAGCC,-0.0605
16,ACCTGGTA,-0.161
17,TGTTTAAA,0.123
18,GCGGCCCC,-0.287
19,TATGGGCA,0.0378
20,CGCGTGTC,0.175
21,GGATTTCA,0.0726
22,ATTTTAGC,0.0914
23,ATCTGGAC,-0.162
24,AGGTCAGG,-0.226
25,AGCGGGAG,-0.246

row,Sequence,PBM E-score
1,ATATCCCC,-0.102
2,GGGTCACC,-0.209
3,CAGATCGC,-0.038
4,AGCAGCTC,-0.174
5,ATGGGTCC,-0.104
6,AGGGCTAC,-0.22
7,GCACGCTA,-0.0753
8,CTTGGTCA,0.109
9,CGCTCATC,0.0707
10,GCGGAAGA,-0.00472
11,ACCATGTG,0.0405
12,TCCCATCA,-0.124
13,AAAGCGTC,-0.0209
14,ATAATTAG,0.285
15,GGCATGTA,-0.0847
16,TATGGTAA,0.00048
17,GCGTGGAA,-0.0709
18,GTACAAAC,0.0182
19,CATAACCA,0.0773
20,ATTAGTGA,0.14
21,GTGAGTCA,-0.0176
22,AACGAGTC,-0.0441
23,AGCATTGG,-0.128
24,AGCCTCGC,-0.00785
25,CATCCACC,0.0969

row,Sequence,PBM E-score
1,GTAAGAAA,0.119
2,CCAGACCG,0.0363
3,AAAGTACT,-0.134
4,CCCACAGC,-0.0882
5,AGCCCGGC,-0.0159
6,AGGAGAGA,-0.211
7,CGCTGTCC,0.137
8,CAAAAGTG,-0.0478
9,GAGACTCC,-0.0922
10,AAAGAGTG,-0.142
11,CACTGCGC,-0.0286
12,AGTAAAAG,0.0683
13,GTCCACTA,0.00702
14,CGAAAGTC,-0.0323
15,GTCAAGTA,-0.27
16,AGTCGGTA,-0.161
17,ATTGCGAA,-0.0152
18,AACCCAGG,-0.0872
19,GGTGGTAA,0.14
20,TGGAAGAA,0.0443
21,ATCATGCC,0.0697
22,ACTCTACC,0.0861
23,AGTGCTGC,-0.0906
24,CAGTTATC,-0.0844
25,AAAATCTA,0.0352

row,Sequence,PBM E-score
1,AAACTCTA,-0.145
2,CAGGTTAA,-0.0833
3,CTATGAGA,-0.12
4,ACGAGAGA,-0.16
5,ATGATGGC,-0.188
6,AGCTACAA,0.139
7,GATGCTAC,-0.02
8,CCCGTGCC,-0.241
9,AGCGGCCA,-0.131
10,CGATCCCC,-0.139
11,AAAATAGA,0.0904
12,ATTCAGTC,-0.0545
13,AAATCACA,0.05
14,TCTCTGAA,-0.0432
15,GCTCTACC,-0.247
16,AAAAAGAA,0.16
17,AGTATCCC,-0.0378
18,AACATTGT,0.176
19,AATGAAAT,0.219
20,AACTCGGT,0.0455
21,ACATGATG,-0.024
22,AATTACGG,0.0709
23,ATAGAATC,-0.129
24,GTTTTTAA,0.141
25,GCTCCACC,-0.138

row,Sequence,PBM E-score
1,ACCCCTCG,-0.212
2,AGCTCAAC,0.0114
3,AGTGACTG,-0.0238
4,ACCGTCGG,-0.1
5,ATCGCCGG,0.0365
6,AACCCATA,0.162
7,CAGTACCC,-0.15
8,ACCCACTG,-0.0557
9,GGCGTTCA,-0.0646
10,ACCTAAAA,0.0181
11,ACTCTTAT,0.228
12,GCGGTAGA,-0.0737
13,TATACAGA,0.125
14,CGCATACA,0.0764
15,GACCGTTA,0.0216
16,TCAGGACA,0.201
17,CGCGTCTC,0.133
18,CATCGCAC,-0.136
19,TAGTACGA,0.0258
20,TATAGTAA,0.294
21,CCCCCCTC,-0.389
22,ACCAATTA,0.154
23,GACAACAC,0.139
24,CGAGTCGC,-0.187
25,AAGCGCAT,0.0449

# Laid out differently: entries from further up.
row | Sequence | PBM E-score
13 | ATCATTAG | 0.196
14 | ATCATACA | 0.114
15 | GAAAAGCC | -0.0605
16 | ACCTGGTA | -0.161
17 | TGTTTAAA | 0.123
18 | GCGGCCCC | -0.287

# Next results

row,Sequence,PBM E-score
1,ACGGAGGC,-0.217
2,GGAGTTGA,-0.0602
3,GATCACGC,0.226
4,TCCCGCAA,-0.00465
5,CGTGACGA,0.156
6,ACACTACA,0.128
7,ACTCTCCG,-0.0325
8,TATTACCA,0.222
9,CTCCTAGC,-0.119
10,ACGAATAG,0.0566
11,CCAGTAGG,-0.167
12,AACGGGAG,0.0563
13,TCACGCGA,0.179
14,GCACGCAC,-0.0597
15,ACACATAA,0.187
16,CCCCTTAA,-0.305
17,TCTCGGCA,-0.0842
18,ACACGTAG,-0.189
19,CCTCGAGA,0.0762
20,ACCTCACT,-0.126
21,GAGCTTTA,-0.0713
22,GCGGGACC,-0.0389
